Results are given in words; binding and its absence hold for the method and conditions named. Binding seen in cells or lysates may run through a third protein. A yes stands for co-enrichment or nearness to the bait. Other partners may have been found.
Molecular target: Gm364 (mouse) (UniProt A2AFI6)
Assay: affinity purification with mass spectrometry; anti-Gm364 antibody IP against control IgG IP from oocyte lysate, SDS-PAGE, silver staining, distinct bands cut out, MALDI-TOF peptide mass fingerprinting (Mascot)

Chains of the proteins cited; added tags and fusions are not shown. Lines headed by an entry give the natural chain unless they say otherwise; changes in a name come on top.
UniProt A2AFI6: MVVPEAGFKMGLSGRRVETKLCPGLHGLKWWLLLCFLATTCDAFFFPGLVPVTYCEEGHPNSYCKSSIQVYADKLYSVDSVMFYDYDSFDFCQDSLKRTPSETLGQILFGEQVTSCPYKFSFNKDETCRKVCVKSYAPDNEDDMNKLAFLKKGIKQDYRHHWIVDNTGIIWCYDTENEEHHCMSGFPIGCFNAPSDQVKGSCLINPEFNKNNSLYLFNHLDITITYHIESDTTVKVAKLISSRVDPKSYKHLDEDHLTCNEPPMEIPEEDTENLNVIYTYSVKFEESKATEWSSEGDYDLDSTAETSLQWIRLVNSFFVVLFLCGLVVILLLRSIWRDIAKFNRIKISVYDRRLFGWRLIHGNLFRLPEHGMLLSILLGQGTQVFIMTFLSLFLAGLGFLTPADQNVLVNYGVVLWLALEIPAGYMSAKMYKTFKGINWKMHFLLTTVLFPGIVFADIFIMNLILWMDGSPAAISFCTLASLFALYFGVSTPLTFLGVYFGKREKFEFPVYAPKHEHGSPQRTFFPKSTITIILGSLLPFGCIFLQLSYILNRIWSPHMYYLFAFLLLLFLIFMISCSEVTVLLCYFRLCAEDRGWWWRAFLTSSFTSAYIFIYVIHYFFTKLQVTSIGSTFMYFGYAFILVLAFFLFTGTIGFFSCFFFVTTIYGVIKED

B1: MIB2 (enzyme, UniProt Q8R516 1-973)
chain: MDLDPHAGVQVGMRVVRGMDWKWGQQDGGEGGVGTVVELGRHGSPSTPDRTVVVQWDQGTRTNYRAGYQGAHDLLLYDNAQIGIRHPNIICDCCKKHGLRGMRWKCRVCFDYDLCTQCYMHNKHDLTHAFERYETSHSRPVTLSPRQGLPRIPLRGIFQGAKVVRGPDWEWGSQDGGEGKTGRVVDIRGWDVETGRSVASVTWADGTTNVYRVGHKGKVDLRCVGEAAGGFYYKEHLPKLGKPAELQRRVSADGQPFQRGDKVKCLLDTDVLRDMQEGHGGWNPRMAEFIGQMGTVHRITDRGDVRVQFNHETRWTFHPGALTKHNSFWVGDVVRVIGDLDTVKRLQAGHGEWTDDMAPALGRVGKVVKVFGDGNLRVAVGGQRWTFSPSCLVAYRPEEDANLDVAERARENKSAASVSVAGSLSVALDKLRTQKSDPEHPGRLVVEAALGNVARALDLLRRHPEQASYHPALVVDTKNQGRTALQVAAYLGQVELVRLLLQARASMDLPDDEGNTVLHYTAMGNQPEATRVLLSAGCAVDARNGTRSTALHVAVQRGFLEVVKILCERGCDVNLPDAHADTPLHSAISAGAGASSIVEVLTEVPGIDVTATNSQGFTLLHHASLKGHVLAVRKILARARQLVDAKKEDGFTALHLAALNNHREVAQVLIREGRCDVNVRNRKLQSPLHLAVQQAHLGLVPLLVDAGCSVNTEDEEGDTALHVALQRHQLLPLVADRAGGDPGPLQLLSRLQASGLPGCTELTVGAAVACFLALEGADVSYANHRGRSPLDLATEGRVLKALQGCAQRFRERQAGGGGGVPPGPRHVLSTPNTVTNLHVSGTAGPEAAECLVCSELALLILFSPCQHRTVCEECARRMKKCIRCQVVISKKLRPDGSEVVNAIQVPGPPRQLVEELQSRYRQMEERITCPICIDSHIRLVFQCGHGACAPCGAALNACPICRQPIRDRIQIFV
In the case of B1, the binding is reported as “binds”.

B2: GRAMD1A (protein, UniProt Q8VEF1 1-722)
chain: MFDTTPHSGRSSPSSSPSLRKRLQLLPPIRPPPASEPEPGTMVEKGSDSSSEKSGVSGTLSTQSLGSRNFIRNSKKMQSWYSMLCPTYKQRNEDFRKLFSKLPEAERLIVDYSCALQREILLQGRLYLSENWICFYSNIFRWETTISIQLKEVTCLKKEKTAKLIPNAIQICTESEKHFFTSFGARDRCFLLIFRLWQNALLEKTLSPRELWHLVHQCYGSELGLTSEDEDYVCPLQLNGLGSPKEVGDVIALSDISPSGAADHSQEPSPVGSRRGRVTPNLSRASSDADHGAEEDKEEQTDGLDASSSQTVTPVAEPLSSEPTPPDGPTSSLGPLDLLSREELLTDTSNSSSSTGEEGDLAALLPDLSGRLLINSVFHMGAERLQQMLFSDSPFLQGFLQQRKFTDVTLSPWSSDSKCHQRRVLTYTIPISNQLGPKSASVVETQTLFRRGPQAGGCVVDSEVLTQGIPYQDYFYTAHRYCILGLARNKARLRVSSEIRYRKQPWSLVKSLIEKNSWSGIEDYFHHLDRELAKAEKLSLEEGGKDTRGLLSGLRRRKRPLSWRGHRDGPQHPDPDPCTQTSMHTSGSLSSRFSEPSVDQGPGAGIPSALVLISIVLIVLIALNALLFYRLWSLERTAHTFESWHSLALAKGKFPQTATEWAEILALQKHFHSVEVHKWRQILRASVELLDEMKFSLEKLHQGITVPDPPLDTQPQPDDSFP
B2 was tested, and the binding was “binds”.
